Reference: PubChem BioAssay AID2685 (National Center for Advancing Translational Sciences (NCATS), 2010)
The other results are listed elsewhere or left out. Shown are side measurements of this screen, not its main read-out; they come without a call. The list favours compounds with an active or inconclusive main result. Potencies come from curve fits of mixed quality, noted in brackets.

Assay: qHTS Assay for Lipid Storage Modulators in Drosophila S3 Cells;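 on cell number change: cells counted by Cell Tracker Red CMTPX staining in the red channel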
Conditions: BODIPY lipid droplet fluorescence, 18-24 h; for cell number change: measured here: cell count max response, cells fed with added oleic acid
Summary of the method: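 Drosophila S3 cells got compounds at several concentrations plus oleic acid (400 uM solution). Laser-scanning cytometry with 488 nm excitation read lipid droplets at 500-530 nm and cells at 575-640 nm. Percent activity was relative to 20 uM Triacsin C.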

[1] = measured here: lipid fluorescence (Fed channel) AC50, cells fed with added oleic acid
[2] = measured here: cell number channel AC50, cells fed with added oleic acid

Row | SMILES | cell number change [%] | AC50 [1] | AC50 [2]
1 | CCOC(=O)COc1nc(OC)nc(N2CCOCC2)n1 | -13.5 | 29.1 µM [falling, single point] | –
2 | O=C(Nc1ccccc1N1CCN(C(=O)c2ccccc2)CC1)c1ccc([N+](=O)[O-])o1 | – | 7.31 µM [falling, partial curve] | –
3 | O=C(CN1CCN(S(=O)(=O)c2ccc(Cl)c(Cl)c2)CC1)N1CCCCC1 | 2.52 | 6.51 µM [falling, partial curve, poor fit] | –
4 | CN(C)CCCOC(=O)c1ccccc1 | -2.21 | – | –
5 | COc1ccc(NC(=O)Nc2nc3ccccc3s2)cc1 | -32.9 | 6.51 µM [falling, single point] | 29.1 µM [falling, single point]
6 | CCOc1cc(/C=N/N2CCOCC2)ccc1OCc1ccc(C(=O)OC)o1 | -13.5 | – | 0.00461 µM [falling, full curve, poor fit]
7 | CCOC(=O)c1c(C)[nH]c(C)c1C(=O)CSc1nnc(-c2ccncc2)n1C | 6.11 | – | 1.64 µM [rising, partial curve, poor fit]
8 | CCOCCc1nnc(NC(=O)C2CC(=O)N(CCc3ccc(F)cc3)C2)s1 (stereo not drawn) | 1.28 | 29.1 µM [falling, single point] | –
9 | Cc1ccc(CNC(=O)COC(=O)CCOc2ccc(C)cc2)cc1 | 26.9 | – | –
10 | CC1(C)OCC(COC(=O)Nc2cccnc2)([N+](=O)[O-])CO1 | – | 29.1 µM [rising, single point] | –
11 | CC(C)N(C(=O)c1ccc2nc(-c3ccccc3)c(-c3ccccc3)nc2c1)C(C)C | – | 23.1 µM [falling, partial curve] | –
12 | Cc1cc(Cl)ccc1OCC(=O)OCC(=O)NC1CCCC1 | -3.88 | 32.6 µM [falling, partial curve, poor fit] | –
13 | O=C(c1ccc(CSCc2ccccc2F)o1)N1CCN(c2ccc(N3CCOCC3)nn2)CC1 | 123 | – | 3.66 µM [rising, full curve]
14 | CCN1C(=O)CSC1=NC1C2CC3CC(C2)CC1C3 (stereo not drawn) | -49 | – | 29.1 µM [falling, single point]
15 | O=C1CSC(=S)N1CC1CCCO1 (stereo not drawn) | -0.13 | 18.4 µM [rising, partial curve, poor fit] | –
16 | COn1c(-c2ccccc2)nc2ccc(Cl)cc21 | -62.4 | – | –
17 | O=C1C(Cc2cccc([N+](=O)[O-])c2)S/C(=N/N=C/c2ccco2)N1c1ccccc1 (stereo not drawn) | -22.1 | 29.1 µM [rising, single point] | 6.51 µM [falling, single point]
18 | COc1ccc(C(C)=O)cc1CSC(=N)N | 17.1 | – | –
19 | CCCCn1c(SCn2nnc3ccccc3c2=O)nc2cc(C(=O)OC)ccc2c1=O | -7.49 | – | 0.00411 µM [falling, full curve, poor fit]
20 | O=C(NC1CCCc2ccccc21)c1n[nH]c(=O)c2ccccc12 (stereo not drawn) | 19.4 | 9.2 µM [rising, single point] | 0.0731 µM [falling, full curve, poor fit]

Row | SMILES | cell number change [%] | AC50 [1] | AC50 [2]
21 | COc1ccc(-n2nc(C(=O)NCC(=O)N3CC(C)CC(C)C3)c3ccccc3c2=O)cc1OC (stereo not drawn) | 38.5 | 5.17 µM [falling, single point] | 14.6 µM [rising, partial curve, poor fit]
22 | CCN1/C(=C/C=C/C=C/c2sc3ccccc3[n+]2CC)Sc2ccccc21 | -81.8 | 1.3 µM [falling, full curve] | 1.03 µM [falling, full curve]
23 | Cc1ccc(CNC(=O)CN2C(=O)COc3ccc(S(=O)(=O)N4CCC(C)CC4)cc32)o1 | 9.56 | – | –
24 | OC1CCN(C(=S)Nc2ccc(Nc3ccccc3)cc2)CC1 | -27.9 | – | –
25 | CC1CCc2[nH]c3ccc(C(=O)Nc4ccc(C(=O)N(C)C)cc4)cc3c2C1 (stereo not drawn) | -2.16 | – | –
26 | CCc1ccc(NC(=O)CCC(=O)Nc2nnc(C(C)C)s2)cc1 | 6.49 | 29.1 µM [falling, single point] | –
27 | COC(=O)c1ccc(C)c(N(CCO)CCO)c1 | 5.83 | 6.51 µM [falling, single point] | –
28 | CC(C(=O)N=Nc1c(O)[nH]c2ccccc12)n1cnc2ccccc2c1=O (stereo not drawn) | 58.1 | 0.291 µM [rising, partial curve, poor fit] | 18.4 µM [rising, single point]
29 | O=C(Nc1nnc(S(=O)(=O)N2CCCC2)s1)c1cccc([N+](=O)[O-])c1 | -11.8 | 2.06 µM [rising, partial curve] | –
30 | CC1(c2ccc3noc(-c4ccc(Cl)cc4)c3c2)OCCO1 | 30.7 | – | 20.6 µM [rising, single point]
31 | O=C1C(=O)N2C(=C1C(=O)N1CCCCCC1)c1ccccc1CC21CCCC1 | – | 0.731 µM [falling, full curve] | –
32 | O=S(=O)(Nc1ccc2nc(C(F)(F)F)[nH]c2c1)c1ccccc1 | -30.5 | – | 10.3 µM [falling, partial curve]
33 | CCCCCn1nc(C(=O)N(CC(C)C)c2c(N)n(CCCC)c(=O)[nH]c2=O)c2ccccc2c1=O | 32.4 | 4.11 µM [rising, partial curve] | 3.26 µM [rising, partial curve]
34 | O=C(Nc1ccccc1F)Nc1ccccc1N1CCCCC1 | -22.9 | 23.1 µM [falling, partial curve] | –
35 | O=C(CSc1nnnn1-c1cccc2c1CCCC2)N1CCCC1 | -31.4 | 0.231 µM [falling, full curve, poor fit] | 0.206 µM [falling, full curve, poor fit]
36 | Cc1ccc(-c2nnc(C)c(N3CCOCC3)n2)cc1 | 14 | 0.259 µM [falling, full curve, poor fit] | –
37 | COc1cccc(-n2c(COc3ccc(C)cc3)nnc2SCC(=O)O)c1 | 11.4 | – | –
38 | O=[N+]([O-])c1cc(Br)c2nsnc2c1N1CCOCC1 | 3.86 | 2.31 µM [falling, partial curve] | –
39 | Cc1ccc(CSc2nnc(-c3ccncc3)n2CC2CCCO2)cc1 (stereo not drawn) | – | 0.0058 µM [rising, full curve, poor fit] | –

Among those listed so far, 3 contain two or more sulfur atoms.
Row | SMILES | cell number change [%] | AC50 [1] | AC50 [2]
15 | O=C1CSC(=S)N1CC1CCCO1 (stereo not drawn) | -0.13 | 18.4 µM [rising, partial curve, poor fit] | –
22 | CCN1/C(=C/C=C/C=C/c2sc3ccccc3[n+]2CC)Sc2ccccc21 | -81.8 | 1.3 µM [falling, full curve] | 1.03 µM [falling, full curve]
29 | O=C(Nc1nnc(S(=O)(=O)N2CCCC2)s1)c1cccc([N+](=O)[O-])c1 | -11.8 | 2.06 µM [rising, partial curve] | –
